Reference: US20130115626A1 (Genentech, published 2013)
Results are given in words; binding and its absence hold for the method and conditions named. Some results given as binding are weak or reduced against the parent protein; the word gives no strength.

Target: T1, human soluble NRP1 antigen (human) (UniProt O14786)
T1 sequence (looked up): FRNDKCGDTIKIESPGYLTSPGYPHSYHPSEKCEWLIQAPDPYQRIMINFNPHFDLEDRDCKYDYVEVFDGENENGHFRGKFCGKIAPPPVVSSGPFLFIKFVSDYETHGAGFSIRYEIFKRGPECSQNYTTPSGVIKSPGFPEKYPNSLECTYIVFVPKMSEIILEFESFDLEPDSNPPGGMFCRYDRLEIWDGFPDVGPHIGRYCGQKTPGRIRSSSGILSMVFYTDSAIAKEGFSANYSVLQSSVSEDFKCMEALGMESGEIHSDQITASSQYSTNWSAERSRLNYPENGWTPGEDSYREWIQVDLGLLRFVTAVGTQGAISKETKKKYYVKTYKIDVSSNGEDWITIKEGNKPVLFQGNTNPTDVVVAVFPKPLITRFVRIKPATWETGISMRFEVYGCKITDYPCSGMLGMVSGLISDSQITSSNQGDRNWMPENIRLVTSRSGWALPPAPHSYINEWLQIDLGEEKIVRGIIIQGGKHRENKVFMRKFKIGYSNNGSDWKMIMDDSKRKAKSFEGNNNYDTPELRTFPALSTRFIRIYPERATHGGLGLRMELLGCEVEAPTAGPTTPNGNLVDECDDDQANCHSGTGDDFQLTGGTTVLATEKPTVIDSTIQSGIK
Test: ELISA screen of hybridoma supernatants and subclones on soluble NRP1 antigen

B1: monoclonal anti-NRP1 antibody 7130 (antibody, V domains shown)
VH: QLVEESGGGLVTPGGTLTLTCTASGFTISNYHMSWVRQAPGKGLEWIGIIYAVSAATWSATWVKGRFTISKTLTTVDLKMTSLTAADTATYFCARVRAPGDSTYYDLWGPGTLVTVSS
VL: AVVMTQTASPVSAVVGGTVTINCQASQTISNNWLSWYQQKPGQPPKLLIYKASILASGVPSRFSGSGSGTEFTLTISGVQCDDAATYYCLYGHYITTSAHNAFGGGTEVVVKG
notes: Rabbit monoclonal antibody from a hybridoma (rabbit immunised with human soluble NRP1)
Question: B1 was tested. Which binding did it give?
Answer: binds
